At least one structure is not confirmed: it was looked up by name or label, or the drawing left a doubt.
What was measured:
U87 glioma = assay: morphological change of human glioma cells in culture (vacuoles, mitochondria); assay type: cell-based
C6 glioma = assay: in vivo rat model: C6 glioma cells injected into brain, treatment by osmotic mini pump; conditions: 5×10^4 C6 cells, pump 1 μl/hr for 7 days, 7 μM MMGS-155 or 10 μM BCNU, vs control, hydrochloride
Text: Approximately 5×10^4 C6 glioma cells were transplanted into a rat brain via a cannula followed by treatment for seven days. Tumor cells are depicted by staining for beta galactosidase.
FIG. 2 is a graph depicting the maximum extent of tumor in a single section.
A rat model system was developed to examine the in vivo efficacy of the compounds of the present invention.
The first step was to produce a cell line with a marker gene. A rat C6 glioma cell line was selected and stably transfected with a β-galactosidase construct. These cells were cultured and prepared for injection into the brain of adult Sprague-Dawley rats to simulate in vivo tumor development.
The animals were anesthetized and a cannula was placed into the brain. Approximately 5×10^4 glioma cells were injected through the cannula. […] The mini osmotic pump delivered 1 μl/hr for 7 days. With the tubing used to connect the pump, there was approximately a 10 hour delay for the treatment to reach the brain.
The section with the largest extent of tumor visible in all of the cases was identified and the cross-sectional area of the tumor was measured.

T98G human glioma cells = assay: cytotoxic activity in human glioma cell line; assay type: cell-based
[1] = tested on: MCF7, A549, HeLa, LnCap cancer cell lines; assay: anti-proliferative activity against cancer cell lines, 96 hr; assay type: cell-based
Protocol: Cell proliferation was measured and EC50 values were estimated.

C6 glioma cells = assay: survival of C6 glioma cells after 96 hr treatment (Example 5); assay type: cell-based, rat; conditions: hydrochloride

## Cl.Oc1cc2c(cc1O)C(Cc1ccc(-c3ccccc3)cc1)NCC2 (racemic) [MMGS-155]
U87 glioma; U87 glioma, 3 μM, 18 hr
  vacuoles in treated cells (toluidine blue): presence of vacuoles in the treated cells
U87 glioma; U87 glioma, 5 μM, 18 hr
  vacuoles in cytosol (Hoechst dye): Many vacuoles were noted in the cytosol
U87 glioma; human glioma in culture
  mitochondrial disruption (electron microscopy): appears to cause mitochondrial disruption in the tumor cells
C6 glioma
  tumor size (cross-sectional area, maximum extent of tumor in a single section): significantly smaller than the control groups
T98G human glioma cells
  activity in human glioma relative to C6 glioma: approximately four-fold less active
[1]
  anti-proliferative activity against cancer cell lines: showed activity on all of the tested cancer cell lines
C6 glioma cells
  anti-proliferative potency relative to BCNU: greater anti-proliferative activity than BCNU

Source: US20080033007A1, “Substituted Tetrahydroisoquinoline Compounds for Cancer Therapy” (priority 2002, published 2008)
